Reference: the supplement of paper PMC10849652
This is one part of the list.

The chains behind the UniProt entries cited, without tags or fusion partners. Where a name states a change or a piece, a line headed by the entry shows the natural chain unless it says otherwise.
UniProt P50750, whole entry, looked up: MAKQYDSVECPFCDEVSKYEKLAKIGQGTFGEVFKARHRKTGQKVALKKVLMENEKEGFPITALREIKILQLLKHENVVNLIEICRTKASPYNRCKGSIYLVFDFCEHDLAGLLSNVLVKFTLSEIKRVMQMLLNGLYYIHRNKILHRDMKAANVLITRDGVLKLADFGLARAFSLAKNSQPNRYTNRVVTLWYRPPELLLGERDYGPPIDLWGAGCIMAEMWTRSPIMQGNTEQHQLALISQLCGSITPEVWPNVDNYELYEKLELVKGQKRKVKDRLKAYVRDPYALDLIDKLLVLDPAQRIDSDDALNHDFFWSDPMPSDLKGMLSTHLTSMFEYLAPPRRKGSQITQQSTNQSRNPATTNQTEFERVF
UniProt P60953, whole entry, looked up: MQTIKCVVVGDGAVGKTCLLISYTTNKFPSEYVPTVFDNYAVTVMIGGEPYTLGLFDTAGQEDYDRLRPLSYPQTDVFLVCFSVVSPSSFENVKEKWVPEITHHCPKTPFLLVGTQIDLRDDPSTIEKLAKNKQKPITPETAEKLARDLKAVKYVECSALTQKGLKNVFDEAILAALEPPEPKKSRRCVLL
UniProt Q66GS9: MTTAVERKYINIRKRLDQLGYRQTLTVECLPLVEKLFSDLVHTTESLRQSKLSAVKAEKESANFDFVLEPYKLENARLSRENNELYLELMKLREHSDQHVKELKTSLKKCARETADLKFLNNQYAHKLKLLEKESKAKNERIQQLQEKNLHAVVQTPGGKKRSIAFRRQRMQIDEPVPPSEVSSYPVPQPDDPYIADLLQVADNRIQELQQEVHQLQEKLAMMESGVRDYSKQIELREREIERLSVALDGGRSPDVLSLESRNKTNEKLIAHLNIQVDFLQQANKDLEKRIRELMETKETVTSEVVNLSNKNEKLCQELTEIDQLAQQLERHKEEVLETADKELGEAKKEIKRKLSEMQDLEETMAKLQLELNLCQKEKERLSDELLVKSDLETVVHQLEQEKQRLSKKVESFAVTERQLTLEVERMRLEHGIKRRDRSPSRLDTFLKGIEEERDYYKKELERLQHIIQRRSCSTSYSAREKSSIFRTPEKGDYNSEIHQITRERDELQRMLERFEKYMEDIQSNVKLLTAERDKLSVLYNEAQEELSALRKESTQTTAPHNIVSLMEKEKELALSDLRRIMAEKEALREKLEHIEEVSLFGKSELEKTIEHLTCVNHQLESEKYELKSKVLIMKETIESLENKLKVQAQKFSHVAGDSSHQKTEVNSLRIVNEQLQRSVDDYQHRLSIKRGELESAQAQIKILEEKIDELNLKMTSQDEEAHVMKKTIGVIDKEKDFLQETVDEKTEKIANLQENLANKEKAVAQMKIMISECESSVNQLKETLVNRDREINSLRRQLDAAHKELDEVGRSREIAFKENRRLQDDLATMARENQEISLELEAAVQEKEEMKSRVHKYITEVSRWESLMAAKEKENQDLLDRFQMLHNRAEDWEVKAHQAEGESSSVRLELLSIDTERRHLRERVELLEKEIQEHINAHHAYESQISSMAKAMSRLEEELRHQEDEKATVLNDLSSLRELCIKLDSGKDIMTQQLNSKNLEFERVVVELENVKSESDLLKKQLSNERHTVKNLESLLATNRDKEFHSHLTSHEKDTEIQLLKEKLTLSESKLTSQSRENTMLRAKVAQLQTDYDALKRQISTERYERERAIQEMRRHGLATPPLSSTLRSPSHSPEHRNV
UniProt O14735: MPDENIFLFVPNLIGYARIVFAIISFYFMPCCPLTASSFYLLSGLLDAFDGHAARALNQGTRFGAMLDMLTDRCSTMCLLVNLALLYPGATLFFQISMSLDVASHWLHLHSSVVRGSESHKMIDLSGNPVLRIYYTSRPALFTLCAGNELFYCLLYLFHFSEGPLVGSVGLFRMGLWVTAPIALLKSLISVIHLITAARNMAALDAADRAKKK
UniProt O95674: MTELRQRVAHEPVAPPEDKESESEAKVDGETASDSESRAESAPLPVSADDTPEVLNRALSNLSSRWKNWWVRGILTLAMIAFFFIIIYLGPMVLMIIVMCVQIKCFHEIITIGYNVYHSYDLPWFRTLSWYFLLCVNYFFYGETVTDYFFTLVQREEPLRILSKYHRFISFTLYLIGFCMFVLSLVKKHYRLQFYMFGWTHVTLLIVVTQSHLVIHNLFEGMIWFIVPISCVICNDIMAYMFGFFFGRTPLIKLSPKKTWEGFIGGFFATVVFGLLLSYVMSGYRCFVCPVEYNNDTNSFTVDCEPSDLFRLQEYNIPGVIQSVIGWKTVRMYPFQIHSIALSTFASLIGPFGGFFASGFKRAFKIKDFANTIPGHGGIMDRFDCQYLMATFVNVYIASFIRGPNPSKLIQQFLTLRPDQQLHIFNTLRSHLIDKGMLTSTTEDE
UniProt Q9NRR3: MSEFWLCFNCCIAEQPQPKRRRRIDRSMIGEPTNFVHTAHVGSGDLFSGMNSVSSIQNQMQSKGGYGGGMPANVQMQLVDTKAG
UniProt Q9UFW8: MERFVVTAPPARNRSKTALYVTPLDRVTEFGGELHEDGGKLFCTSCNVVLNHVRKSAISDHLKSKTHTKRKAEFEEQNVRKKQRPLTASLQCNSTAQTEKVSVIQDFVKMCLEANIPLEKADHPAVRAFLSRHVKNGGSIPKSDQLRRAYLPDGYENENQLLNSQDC
UniProt Q92879: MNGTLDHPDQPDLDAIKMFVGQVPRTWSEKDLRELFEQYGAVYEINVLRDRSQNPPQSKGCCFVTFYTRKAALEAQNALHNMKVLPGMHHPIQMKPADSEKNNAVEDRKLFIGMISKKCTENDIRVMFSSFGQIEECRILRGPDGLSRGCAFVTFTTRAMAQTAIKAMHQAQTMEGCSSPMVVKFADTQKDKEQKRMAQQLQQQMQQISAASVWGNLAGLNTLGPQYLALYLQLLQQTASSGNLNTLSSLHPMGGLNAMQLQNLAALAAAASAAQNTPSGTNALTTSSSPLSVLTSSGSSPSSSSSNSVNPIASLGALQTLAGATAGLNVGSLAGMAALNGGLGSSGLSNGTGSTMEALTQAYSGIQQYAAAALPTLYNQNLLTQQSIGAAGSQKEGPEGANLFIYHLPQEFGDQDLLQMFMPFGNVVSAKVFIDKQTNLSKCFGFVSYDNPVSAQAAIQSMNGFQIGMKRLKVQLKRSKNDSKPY
UniProt P46527, whole entry, looked up: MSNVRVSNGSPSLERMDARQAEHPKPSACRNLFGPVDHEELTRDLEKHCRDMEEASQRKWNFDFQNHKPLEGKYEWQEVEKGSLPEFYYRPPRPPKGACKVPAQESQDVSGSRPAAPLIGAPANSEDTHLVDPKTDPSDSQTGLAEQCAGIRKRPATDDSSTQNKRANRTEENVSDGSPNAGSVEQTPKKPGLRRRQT
UniProt Q9H3Q1: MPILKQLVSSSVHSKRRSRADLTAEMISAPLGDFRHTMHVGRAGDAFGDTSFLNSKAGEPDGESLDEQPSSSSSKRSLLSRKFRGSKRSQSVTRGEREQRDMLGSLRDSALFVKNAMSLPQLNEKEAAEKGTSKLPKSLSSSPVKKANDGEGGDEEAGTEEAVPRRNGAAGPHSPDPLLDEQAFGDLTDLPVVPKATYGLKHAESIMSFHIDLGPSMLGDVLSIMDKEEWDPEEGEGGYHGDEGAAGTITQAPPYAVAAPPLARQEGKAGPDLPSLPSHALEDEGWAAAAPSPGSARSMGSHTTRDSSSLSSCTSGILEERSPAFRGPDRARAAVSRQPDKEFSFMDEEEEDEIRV
UniProt Q7L3B6: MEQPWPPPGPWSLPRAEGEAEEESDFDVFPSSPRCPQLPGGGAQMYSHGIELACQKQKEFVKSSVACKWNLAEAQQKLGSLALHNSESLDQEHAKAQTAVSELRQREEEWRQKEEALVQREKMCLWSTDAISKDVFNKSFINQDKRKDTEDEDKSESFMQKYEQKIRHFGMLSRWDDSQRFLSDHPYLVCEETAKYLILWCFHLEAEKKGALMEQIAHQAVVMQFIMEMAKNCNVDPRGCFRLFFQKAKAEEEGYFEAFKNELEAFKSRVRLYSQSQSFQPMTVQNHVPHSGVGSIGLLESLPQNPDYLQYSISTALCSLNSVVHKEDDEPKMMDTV
UniProt O75956: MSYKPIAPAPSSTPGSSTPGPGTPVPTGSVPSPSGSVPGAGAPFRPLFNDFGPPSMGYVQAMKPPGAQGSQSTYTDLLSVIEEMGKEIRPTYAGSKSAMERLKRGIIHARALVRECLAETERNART
UniProt O60508: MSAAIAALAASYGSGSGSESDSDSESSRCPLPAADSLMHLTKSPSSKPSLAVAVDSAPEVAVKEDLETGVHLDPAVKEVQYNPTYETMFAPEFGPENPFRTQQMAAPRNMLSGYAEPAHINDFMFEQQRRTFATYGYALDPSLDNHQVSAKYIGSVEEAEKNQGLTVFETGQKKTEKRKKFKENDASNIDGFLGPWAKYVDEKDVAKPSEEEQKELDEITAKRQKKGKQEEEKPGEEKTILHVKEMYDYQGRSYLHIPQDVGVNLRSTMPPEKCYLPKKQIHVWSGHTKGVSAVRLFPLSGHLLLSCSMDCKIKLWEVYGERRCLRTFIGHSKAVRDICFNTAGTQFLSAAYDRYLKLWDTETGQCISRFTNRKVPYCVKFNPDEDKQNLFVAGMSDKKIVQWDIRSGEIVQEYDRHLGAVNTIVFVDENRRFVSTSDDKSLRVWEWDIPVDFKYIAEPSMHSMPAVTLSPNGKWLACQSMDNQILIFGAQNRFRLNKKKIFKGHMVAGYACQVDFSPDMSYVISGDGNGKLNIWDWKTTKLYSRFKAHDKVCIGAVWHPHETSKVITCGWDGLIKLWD
UniProt Q96SN8: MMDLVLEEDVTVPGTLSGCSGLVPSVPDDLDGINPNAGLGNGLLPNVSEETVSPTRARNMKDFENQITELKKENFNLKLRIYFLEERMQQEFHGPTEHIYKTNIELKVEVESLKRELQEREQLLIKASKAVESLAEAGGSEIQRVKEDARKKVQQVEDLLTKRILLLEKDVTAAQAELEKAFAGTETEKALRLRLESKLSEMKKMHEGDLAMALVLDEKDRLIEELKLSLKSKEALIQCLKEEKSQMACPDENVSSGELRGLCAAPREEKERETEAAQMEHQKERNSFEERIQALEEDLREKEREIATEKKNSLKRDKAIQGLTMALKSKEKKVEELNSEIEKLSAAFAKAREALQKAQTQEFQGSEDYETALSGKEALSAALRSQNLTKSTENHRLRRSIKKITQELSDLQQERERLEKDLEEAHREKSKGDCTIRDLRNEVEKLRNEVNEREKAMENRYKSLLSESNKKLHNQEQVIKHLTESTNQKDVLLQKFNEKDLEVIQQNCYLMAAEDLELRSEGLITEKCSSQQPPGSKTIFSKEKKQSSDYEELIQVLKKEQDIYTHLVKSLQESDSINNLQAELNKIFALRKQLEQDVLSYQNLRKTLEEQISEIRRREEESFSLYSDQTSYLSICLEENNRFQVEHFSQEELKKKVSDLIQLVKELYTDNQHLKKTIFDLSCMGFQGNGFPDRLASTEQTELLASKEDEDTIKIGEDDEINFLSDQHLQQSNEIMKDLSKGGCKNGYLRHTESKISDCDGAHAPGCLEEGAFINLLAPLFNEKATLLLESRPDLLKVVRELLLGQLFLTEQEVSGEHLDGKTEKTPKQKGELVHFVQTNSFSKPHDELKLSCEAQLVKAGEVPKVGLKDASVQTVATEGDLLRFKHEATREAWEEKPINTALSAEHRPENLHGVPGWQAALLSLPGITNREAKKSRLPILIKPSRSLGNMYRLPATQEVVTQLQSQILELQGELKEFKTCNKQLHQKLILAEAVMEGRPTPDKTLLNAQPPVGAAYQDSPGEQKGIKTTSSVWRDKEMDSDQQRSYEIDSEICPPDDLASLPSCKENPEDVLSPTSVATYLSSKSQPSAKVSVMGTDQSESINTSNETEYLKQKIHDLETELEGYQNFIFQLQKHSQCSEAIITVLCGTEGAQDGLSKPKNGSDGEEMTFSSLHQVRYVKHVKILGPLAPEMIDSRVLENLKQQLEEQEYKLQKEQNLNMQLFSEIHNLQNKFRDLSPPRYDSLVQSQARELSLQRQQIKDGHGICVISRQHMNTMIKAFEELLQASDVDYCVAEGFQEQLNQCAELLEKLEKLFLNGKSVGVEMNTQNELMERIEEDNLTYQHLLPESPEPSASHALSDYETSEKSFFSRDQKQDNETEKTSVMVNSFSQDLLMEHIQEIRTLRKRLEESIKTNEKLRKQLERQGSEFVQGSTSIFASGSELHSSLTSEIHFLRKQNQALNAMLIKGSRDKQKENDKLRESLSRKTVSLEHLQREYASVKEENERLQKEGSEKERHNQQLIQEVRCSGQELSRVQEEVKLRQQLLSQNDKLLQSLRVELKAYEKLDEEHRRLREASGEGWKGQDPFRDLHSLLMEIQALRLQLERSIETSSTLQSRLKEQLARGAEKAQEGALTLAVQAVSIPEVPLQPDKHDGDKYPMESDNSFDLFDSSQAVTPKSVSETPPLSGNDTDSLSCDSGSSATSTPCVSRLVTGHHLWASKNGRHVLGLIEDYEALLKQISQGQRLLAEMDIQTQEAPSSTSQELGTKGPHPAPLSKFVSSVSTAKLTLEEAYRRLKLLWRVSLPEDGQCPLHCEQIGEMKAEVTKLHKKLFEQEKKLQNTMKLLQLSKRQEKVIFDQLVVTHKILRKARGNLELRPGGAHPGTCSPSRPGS

How the values were obtained:
Assay in all cases: log2 fold change, soluble protein after heating vs DMSO (PISA); higher = thermal stabilisation; K562 lysate, 10 uM; active = over 0.2 and 3.5 SD of the protein, either way, in both replicates (recomputed)
[1] = compound: CS(=O)(=O)CCNCc1ccc(-c2ccc3ncnc(Nc4ccc(OCc5cccc(F)c5)c(Cl)c4)c3c2)o1 [lapatinib]
How it was run: (§1)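 The values are log-two fold changes in thermal stability compared with solvent controls and come from duplicates. They were obtained by TMTpro 16plex LC-MS/MS, with channel sums equalised, on the supernatant after 21,000xg for 90 min. That supernatant came from crude K562 extract at 1 mg/mL protein treated with 10 μM compound for 30 min, heated for 3 min across 48°C-58°C, pooled and brought to 0.5% NP-40 at 4°C.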

[2] = compound: CS(=O)(=O)N1CCN(Cc2cc3nc(-c4cccc5[nH]ncc45)nc(N4CCOCC4)c3s2)CC1 [pictilisib]
How it was run: as §1

[3] = compound: C[C@@H](Oc1cc(-c2cnn(C3CCNCC3)c2)cnc1N)c1c(Cl)ccc(F)c1Cl [crizotinib]
How it was run: as §1

[4] = compound: C[C@H](C1=CC=C(C=C1)C(=O)NC2=C3C=CNC3=NC=C2)N
How it was run: as §1

[5] = compound: C[C@H](Nc1ncnc2nc[nH]c12)c1cc2cccc(Cl)c2c(=O)n1-c1ccccc1 [duvelisib]
How it was run: as §1

[6] = compound: Cc1cc(Nc2cc(CN3CCOCC3)c3nc(C)c(Cc4ccc(Cl)cc4F)n3n2)n[nH]1 [gandotinib]
How it was run: as §1

[7] = compound: Cc1cc(Nc2cc(N3CCN(C)CC3)nc(Sc3ccc(NC(=O)C4CC4)cc3)n2)n[nH]1 [tozasertib]
How it was run: as §1

[8] = compound: Cc1ccc(-n2nc(C(C)(C)C)cc2NC(=O)Nc2ccc(OCCN3CCOCC3)c3ccccc23)cc1 [doramapimod]
How it was run: as §1

[9] = compound: Cc1ccc(NC(=O)c2ccc(CN3CC[C@H](N(C)C)C3)c(C(F)(F)F)c2)cc1Nc1nccc(-c2cncnc2)n1 [bafetinib]
How it was run: as §1

[10] = compound: Cc1cccc(CC(=O)N2CCc3c2ccc(-c2cn(C)c4ncnc(N)c24)c3F)n1
How it was run: as §1

Target	log2 fold change [1]	log2 fold change [2]	log2 fold change [3]	log2 fold change [4]	log2 fold change [5]	log2 fold change [6]	log2 fold change [7]	log2 fold change [8]	log2 fold change [9]	log2 fold change [10]
CDK9 isoform 2 (UniProt P50750)	inactive: -0.103	inactive: 0.034	inactive: 0.067	inactive: 0.066	inactive: -0.026	inactive: 0.074	inactive: -0.108	inactive: -0.02	inactive: -0.125	inactive: -0.056
CEMIP2 (UniProt Q9UHN6)	inactive: -0.098	inactive: -0.069	inactive: 0.006	inactive: -0.087	inactive: 0.022	inactive: 0.067	inactive: -0.037	inactive: 0.001	inactive: 0.005	inactive: -0.042
CDC42 (UniProt P60953)	inactive: -0.038	inactive: -0.007	inactive: -0.023	inactive: 0.112	inactive: -0.024	inactive: -0.124	inactive: -0.01	inactive: -0.038	inactive: 0.48	inactive: -0.08
CEP135 (UniProt Q66GS9)	inactive: -0.017	inactive: -0.04	inactive: -0.014	inactive: -0.04	inactive: 0.021	inactive: -0.012	inactive: 0.114	inactive: -0.001	inactive: -0.089	inactive: 0.066
CFAP20 (UniProt Q9Y6A4)	inactive: -0.012	inactive: -0.013	inactive: -0.011	inactive: -0.198	inactive: -0.009	inactive: 0.068	inactive: -0.03	inactive: 0.019	inactive: -0.075	inactive: 0.064
CDIPT (UniProt O14735)	inactive: -0.056	inactive: -0.021	inactive: 0.064	inactive: 0.016	inactive: 0.022	inactive: -0.188	inactive: -0.016	inactive: 0.07	inactive: -0.008	inactive: 0.062
CEBPZ (UniProt Q03701)	inactive: 0.025	inactive: 0.014	inactive: -0.043	inactive: 0.016	inactive: -0.035	inactive: -0.009	inactive: -0.002	inactive: 0.034	inactive: -0.113	inactive: 0.008
CFL2 (UniProt Q9Y281)	inactive: 0.025	inactive: -0.023	inactive: -0.058	inactive: -0.077	inactive: -0.002	inactive: 0.021	inactive: 0.082	inactive: -0.004	inactive: -0.026	inactive: 0.051
CENPH (UniProt Q9H3R5)	inactive: 0.006	inactive: -0.018	inactive: 0.001	inactive: 0.04	inactive: 0.025	inactive: -0.05	inactive: 0.018	inactive: 0.015	inactive: 0	inactive: -0.094
CDS2 (UniProt O95674)	inactive: 0.02	inactive: -0.007	inactive: 0.031	inactive: -0.029	inactive: 0.088	inactive: 0.048	inactive: 0.054	inactive: 0.009	inactive: 0.006	inactive: 0.019
CETN3 (UniProt O15182)	inactive: 0.097	inactive: 0.051	inactive: 0.087	inactive: 0.065	inactive: 0.011	inactive: -0.023	inactive: 0.089	inactive: 0.042	inactive: -0.064	inactive: 0.008
CERS5 (UniProt Q8N5B7)	inactive: 0.041	inactive: -0.09	inactive: 0.077	inactive: -0.066	inactive: 0.025	inactive: 0.067	inactive: 0.046	inactive: -0.043	inactive: 0.012	inactive: 0.033
CENPS (UniProt Q8N2Z9)	inactive: 0.046	inactive: 0.011	inactive: 0.008	inactive: 0.006	inactive: -0.029	inactive: 0.026	inactive: -0.069	inactive: -0.047	inactive: -0.085	inactive: 0.048
CDC42SE2 (UniProt Q9NRR3)	inactive: 0.011	inactive: 0.05	inactive: -0.021	inactive: 0.105	inactive: 0.031	inactive: -0.067	inactive: -0.051	inactive: -0.029	inactive: 0.043	inactive: 0.019
CGGBP1 (UniProt Q9UFW8)	inactive: -0.017	inactive: 0.074	inactive: 0.011	inactive: -0.061	inactive: -0.032	inactive: 0.033	inactive: 0.048	inactive: 0.057	inactive: 0.066	inactive: 0.013
CELF1 isoform 4 (UniProt Q92879)	inactive: 0.011	inactive: 0.023	inactive: 0.032	inactive: 0.021	inactive: -0.036	inactive: -0.028	inactive: 0.019	active: -0.605	inactive: -0.09	inactive: -0.018
CEP170 (UniProt Q5SW79)	inactive: 0.001	inactive: -0.117	inactive: 0.005	inactive: -0.098	inactive: 0.01	inactive: 0.005	inactive: 0.024	inactive: 0.016	inactive: -0.008	inactive: 0.027
CDKN1B (UniProt P46527)	inactive: 0.083	inactive: -0.043	inactive: 0.139	inactive: 0.047	inactive: -0.06	inactive: -0.161	inactive: -0.005	inactive: -0.04	inactive: -0.106	inactive: -0.059
CDC26 (UniProt Q8NHZ8)	inactive: 0.011	inactive: -0.068	inactive: -0.056	inactive: -0.001	inactive: 0.049	inactive: 0.108	inactive: 0.06	inactive: 0.131	inactive: -0.063	inactive: 0.089
CETN2 (UniProt P41208)	inactive: 0.017	inactive: -0.01	inactive: 0.095	inactive: 0.021	inactive: 0.038	inactive: -0.06	inactive: -0.061	inactive: 0.009	inactive: 0.029	inactive: -0.008
CDC20 (UniProt Q12834)	inactive: 0.092	inactive: -0.028	inactive: 0.012	inactive: 0.015	inactive: -0.082	inactive: -0.016	inactive: -0.027	inactive: 0.061	inactive: -0.103	inactive: 0.031
CEP250 (UniProt Q9BV73)	inactive: 0.015	inactive: -0.012	inactive: -0.007	inactive: -0.06	inactive: 0.079	inactive: -0.041	inactive: 0.116	inactive: 0.038	inactive: -0.012	inactive: 0.067
CDK4 (UniProt P11802)	inactive: -0.039	inactive: -0.008	inactive: 0.017	inactive: -0.115	inactive: -0.004	inactive: 0.006	inactive: -0.078	inactive: -0.046	inactive: -0.038	inactive: 0.011
CDC42EP4 (UniProt Q9H3Q1)	inactive: 0.031	inactive: 0.029	inactive: -0.017	inactive: -0.047	inactive: -0.029	active: 0.223	inactive: -0.017	inactive: 0.157	inactive: -0.027	inactive: 0.102
CDC37L1 (UniProt Q7L3B6)	inactive: -0.008	inactive: -0.024	inactive: 0.026	inactive: 0.02	inactive: 0.032	inactive: 0.028	inactive: 0.04	inactive: 0	inactive: -0.029	inactive: 0.023
CDK2AP2 (UniProt O75956)	inactive: 0.061	inactive: -0.113	inactive: 0.198	inactive: -0.048	inactive: -0.056	inactive: 0.086	–	inactive: 0.072	inactive: 0.022	inactive: 0.001
CDC40 (UniProt O60508)	inactive: -0.028	inactive: 0.039	inactive: -0.053	inactive: -0.027	inactive: 0	inactive: 0.002	inactive: -0.038	inactive: -0.005	inactive: -0.033	inactive: 0.006
CDK5RAP2 (UniProt Q96SN8)	inactive: -0.182	inactive: -0.04	inactive: -0.035	inactive: -0.032	inactive: 0.023	inactive: -0.092	inactive: 0.024	inactive: 0.003	inactive: 0	inactive: 0.084
CEP55 (UniProt Q53EZ4)	inactive: 0.006	inactive: 0.05	inactive: -0.03	inactive: -0.032	inactive: -0.014	inactive: 0.043	inactive: 0.109	inactive: 0.008	inactive: 0.027	inactive: 0.028
CDC27 isoform 2 (UniProt P30260)	inactive: -0.032	inactive: 0.02	inactive: -0.025	inactive: -0.012	inactive: 0.003	inactive: -0.021	inactive: 0.012	inactive: 0.021	inactive: -0.062	inactive: 0.029

Whole records, quoted from the list. Order of values: log2 fold change [1]	log2 fold change [2]	log2 fold change [3]	log2 fold change [4]	log2 fold change [5]	log2 fold change [6]	log2 fold change [7]	log2 fold change [8]	log2 fold change [9]	log2 fold change [10]
CDC40 (UniProt O60508) reads inactive: -0.028	inactive: 0.039	inactive: -0.053	inactive: -0.027	inactive: 0	inactive: 0.002	inactive: -0.038	inactive: -0.005	inactive: -0.033	inactive: 0.006
CDC42EP4 (UniProt Q9H3Q1) reads inactive: 0.031	inactive: 0.029	inactive: -0.017	inactive: -0.047	inactive: -0.029	active: 0.223	inactive: -0.017	inactive: 0.157	inactive: -0.027	inactive: 0.102
